# ± gives the standard deviation of the averaged measurements. The list shows a part of the results.
# Biological target: T1, H3BNT4 and related entries (UniProt Q99547)
# T1 sequence (whole entry): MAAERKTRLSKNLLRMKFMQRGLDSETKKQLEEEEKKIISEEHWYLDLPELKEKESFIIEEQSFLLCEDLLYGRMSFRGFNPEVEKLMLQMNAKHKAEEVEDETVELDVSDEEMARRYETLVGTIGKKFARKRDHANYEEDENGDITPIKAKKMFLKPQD
# Experiment: NP40-soluble protein abundance relative to vehicle (solubility fold change) (ratio); higher = more soluble protein in presence of GTP
# Procedure: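 Solubility proteome profiling in Jurkat crude lysate. Lysate was treated with Mg-GTP (0.1-10 mM) for 10 min at room temperature and 3 min at 37 °C, then solubilised with 0.8% NP40 and benzonase, followed by ultracentrifugation. Proteins were quantified by TMT10 LC-MS/MS; the value is the NP40-soluble abundance relative to the NP40-processed vehicle, from 3 independent experiments.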
smiles,measurement,setting,value
Nc1nc2c(ncn2[C@@H]2O[C@H](COP(=O)(O)OP(=O)(O)OP(=O)(O)O)[C@@H](O)[C@H]2O)c(=O)[nH]1 [guanosine triphosphate],NP40-soluble protein abundance,concentration: 0.1mM,1 ± 0.047
same,NP40-soluble protein abundance,concentration: 0.5mM,1.08 ± 0.076
same,NP40-soluble protein abundance,concentration: 1mM,1.12 ± 0.11
same,NP40-soluble protein abundance,concentration: 2mM,1.25 ± 0.17
same,NP40-soluble protein abundance,concentration: 4mM,1.4 ± 0.26
same,NP40-soluble protein abundance,concentration: 6mM,1.45 ± 0.069
same,NP40-soluble protein abundance,concentration: 8mM,1.47 ± 0.23
same,NP40-soluble protein abundance,concentration: 10mM,1.54 ± 0.29
